Experimental data: PubChem BioAssay AID540256 (National Center for Advancing Translational Sciences (NCATS), 2011)
Among all 300,000 compounds or so, about 3,700 (1.2%) were called active. This list was built around the results that the source calls inconclusive (neither active nor inactive); the mix of calls is not that of the screen. Calls come from the whole dose curve; tested in HEK293 cells. Potencies of inconclusive entries are doubtful fits and often do not repeat.

test: qHTS for Inhibitors of binding or entry into cells for Lassa Virus; conditions: Lassa virus pseudotype entry inhibition, cell reporter; activity change, negative = inhibition: at 37.9 µM (top of the series) unless noted; note: nearly all actives have a fitted effect of over 50% in size
% is set by controls: 0 for no effect and ±100 for the full control effect; potency is the fitted concentration of half-maximal effect.

Row | SMILES | activity change, negative = inhibition | Potency
1 | CC(=O)c1cc(-c2ccccc2)n(CCC(=O)NC2CCCCCCC2)c1C | inactive: 6.21% | –
2 | O=C(Nc1cccc(-c2cnc3ccccc3n2)c1)c1ccncc1 | inactive: 2.04% | –
3 | CCOC(=O)c1c(C)[nH]c(CCC(=O)Nc2c(Cl)cc(OC)cc2OC)c1C | – | inconclusive: 35.5 µM [inhibitor, single point]
4 | Cc1ccc(N(CCC#N)C(=O)COC(=O)C2=COCCO2)cc1 | inactive: 11.4% | –
5 | CCOC(=O)c1c(CN2CCN(c3ccccc3)CC2)oc2ccc(O)cc12 | – | inconclusive: 23.1 µM [inhibitor, single point]
6 | Cc1c(NC(=O)COC(=O)Cc2ccc(Cl)cc2)c(=O)n(-c2ccccc2)n1C | – | inconclusive: 0.0058 µM [activator, full curve, poor fit]
7 | CCOC(=O)C1CCCN(S(=O)(=O)c2ccc3c(c2)CCN3C(=O)CC)C1 (centres undefined) | inactive: -0.172% [at 46.1 µM] | –
8 | COc1cc2c(cc1OC)CN(C(=O)CN1C(=O)NC3(CCCCC3C)C1=O)CC2 (centres undefined) | inactive: 0.187% | –
9 | COc1ccc(/C=N/NC(=O)c2nn(-c3ccc(C)c(C)c3)c(=O)c3ccccc23)cc1 | – | inconclusive: 35.5 µM [inhibitor, single point]
10 | Cc1ccc(Cl)cc1-n1ncc2c(NC3CCCCC3)ncnc21 | – | inconclusive: 10 µM [inhibitor, partial curve, poor fit]
11 | Cc1nc(Oc2cccc(Cl)c2)c2oc3ccccc3c2n1 | – | inconclusive: 23.1 µM [inhibitor, single point]
12 | CC(C)NC(=O)c1cc(-c2ccc(Br)cc2)on1 | – | inconclusive: 1.03 µM [activator, partial curve, poor fit]
13 | CCc1cccc(NC(=O)CCNS(=O)(=O)c2ccc3c(c2)oc(=O)n3C)c1 | inactive: -13.5% [at 46.1 µM] | –
14 | C=C(C)C(O)C=CC=Cc1ccccc1 (centres undefined) | – | inconclusive: 0.531 µM [activator, partial curve, poor fit]
15 | CN(CC(=O)Nc1cccc(F)c1)C(=O)c1ccccc1CCc1ccccc1 | – | inconclusive: 0.1 µM [inhibitor, full curve, poor fit]
16 | CCOCCCNC(=O)Cn1cnc2c(cnn2-c2ccc(OC)cc2)c1=O | – | inconclusive: 3.16 µM [inhibitor, single point]
17 | CC1(C)Cc2ccccc2C(/C(=N\Nc2cccc(Cl)c2)C(N)=O)=N1 | – | inconclusive: 14.1 µM [inhibitor, partial curve, poor fit]
18 | Cc1cc(CN2CCN(CC(=O)Nc3cc(Cl)ccc3-n3cncn3)CC2)no1 | inactive: -0.408% | –
19 | OC1(c2ccccc2F)CCN(Cc2nnc(-c3ccccc3)o2)CC1 | inactive: -2.95% | –
20 | CC1(C)N=C(N)N=C(N)N1c1ccccc1 | – | inconclusive: 22.4 µM [inhibitor, single point]
21 | Cc1nccn1S(=O)(=O)c1cc([N+](=O)[O-])ccc1Cl | – | inconclusive: 6.31 µM [inhibitor, single point]
22 | O=C(NCCc1ccccc1)C(c1ccccc1F)N(C(=O)c1csnn1)C1CC1 (centres undefined) | – | inconclusive: 1.41 µM [inhibitor, partial curve, poor fit]

Compounds above containing four or more nitrogen atoms (eight):
Row | SMILES | activity change, negative = inhibition | Potency
2 | O=C(Nc1cccc(-c2cnc3ccccc3n2)c1)c1ccncc1 | inactive: 2.04% | –
9 | COc1ccc(/C=N/NC(=O)c2nn(-c3ccc(C)c(C)c3)c(=O)c3ccccc23)cc1 | – | inconclusive: 35.5 µM [inhibitor, single point]
10 | Cc1ccc(Cl)cc1-n1ncc2c(NC3CCCCC3)ncnc21 | – | inconclusive: 10 µM [inhibitor, partial curve, poor fit]
16 | CCOCCCNC(=O)Cn1cnc2c(cnn2-c2ccc(OC)cc2)c1=O | – | inconclusive: 3.16 µM [inhibitor, single point]
17 | CC1(C)Cc2ccccc2C(/C(=N\Nc2cccc(Cl)c2)C(N)=O)=N1 | – | inconclusive: 14.1 µM [inhibitor, partial curve, poor fit]
18 | Cc1cc(CN2CCN(CC(=O)Nc3cc(Cl)ccc3-n3cncn3)CC2)no1 | inactive: -0.408% | –
20 | CC1(C)N=C(N)N=C(N)N1c1ccccc1 | – | inconclusive: 22.4 µM [inhibitor, single point]
22 | O=C(NCCc1ccccc1)C(c1ccccc1F)N(C(=O)c1csnn1)C1CC1 (centres undefined) | – | inconclusive: 1.41 µM [inhibitor, partial curve, poor fit]

Carrying on.

Row | SMILES | activity change, negative = inhibition | Potency
23 | CCN(CC)c1ccc(NC(=O)c2cc3c(OC)cccc3[nH]2)cc1 | – | inconclusive: 3.55 µM [inhibitor, partial curve]
24 | S=c1[nH]ccn1-c1c(Cl)cccc1Cl | – | inconclusive: 3.16 µM [inhibitor, partial curve, poor fit]
25 | CC(C(=O)NCC1CCCCC1)N(C)Cc1ccc(Cl)cc1 (centres undefined) | inactive: -2.72% [at 46.1 µM] | –
26 | Cc1ccc(S(=O)(=O)Nc2cccc(C(=O)NCc3cccnc3)c2)cc1F | – | inconclusive: 0.224 µM [inhibitor, full curve, poor fit]
27 | CC1=NOC(=O)/C1=C\c1ccc(-c2ccc(Br)cc2)o1 | – | inconclusive: 35.5 µM [inhibitor, single point]
28 | CCCn1c(C)cc(/C=C(\C#N)C(=O)OCC(=O)Nc2ccc(OC)c(Cl)c2)c1C | inactive: -8.92% | –
29 | O=S1(=O)C=C(Sc2nc3ccccc3s2)c2ccccc21 | – | inconclusive: 18.3 µM [inhibitor, single point]
30 | CC1(CC(=O)N/N=C/c2ccc(OCc3ccc(Cl)cc3Cl)cc2)OCCCO1 | – | inconclusive: 7.08 µM [inhibitor, partial curve, poor fit]
31 | O=C(COc1ccc(C2SCCS2)cc1)Nc1ccc(Cl)cc1 | – | inconclusive: 3.55 µM [inhibitor, full curve, poor fit]
32 | Cc1nnc(NCc2ccccc2)c2ccccc12 | – | inconclusive: 1 µM [inhibitor, single point]
33 | Cc1nc(SCC(=O)N2CCN(C(=O)c3cccs3)CC2)c2c(C)c(C)sc2n1 | – | inconclusive: 8.91 µM [inhibitor, partial curve]
34 | Cc1cc[n+](-c2ccccc2)c2ccccc12 | – | inconclusive: 11.2 µM [inhibitor, partial curve, poor fit]
35 | Cc1nc(SCC(=O)NC(C)(C)C)c2c(-c3cccs3)csc2n1 | – | inconclusive: 35.5 µM [inhibitor, single point]
36 | COC(=O)c1cccc(Nc2c(-c3ccc(OC)cc3)nc3nc[nH]n23)c1 | inactive: -6.19% [at 46.1 µM] | –
37 | C/C(CC(=O)Nc1cc(Cl)ccc1C)=N\NC(=O)C(=O)N1CCCC1 | inactive: 4.89% [at 46.1 µM] | –
38 | O=C(/C=C/c1ccc(Cl)cc1)NC1CC2CCC1C2 (centres undefined) | – | inconclusive: 15.8 µM [inhibitor, partial curve, poor fit]
39 | C=CCNc1cccc2c1S(=O)(=O)N[C@H](CC(C)C)CO2 | – | inconclusive: 11.2 µM [inhibitor, single point]
40 | C/C(=N\NC(=O)CCc1c[nH]c2ccccc12)c1ccc([N+](=O)[O-])cc1 | – | inconclusive: 8.91 µM [inhibitor, partial curve]
41 | CCOC(=O)c1[nH]c(C)c(/C(O)=C2\C(=O)C(=O)N(CCN(C)C)C2c2ccco2)c1C (centres undefined) | inactive: 12.3% | –
42 | ON=C1CCCC2CCCCC12 (centres undefined) | – | inconclusive: 31.6 µM [activator, single point]
43 | COc1cc(NC(=O)c2cc(C)nc3ccccc23)cc(OC)c1 | – | inconclusive: 35.5 µM [inhibitor, partial curve, poor fit]
44 | COc1ccc(C(=O)Nn2c(SCC(=O)NC3CCCCC3)nc3ccccc3c2=O)cc1 | – | inconclusive: 14.6 µM [inhibitor, partial curve, poor fit]
